Data on two compounds can be found in patent publication US5273992A, “Method for reducing sickle erythrocyte dehydration and delaying the occurrence of erythrocyte sickling in-situ” (Beth Israel Hospital Assoc. Inc., priority 1992, dated 1993).

Usually IC50 stands for the concentration at which inhibition is half-maximal.

Assay [1] deals with T1, Ca^2+-activated K+ channel (Gardos channel) of sickle erythrocytes (Homo sapiens, UniProt O15554).
T1 construct: Blood was collected after obtaining informed consent from patients; endogenous in cells; host or cells: erythrocytes (SS) from patients homozygous for Hb S
As to the kind of experiment: Ca^2+-activated ^86Rb influx in sickle (SS) erythrocytes. In kind it is cell-based. On the procedure:
Patients homozygous for Hb S disease were selected. Blood was collected after obtaining informed consent from patients followed in the Hematology Division Clinic at Brigham and Women's Hospital and in the Boston Comprehensive Sickle Cell Center at Boston City Hospital. None of the patients had been transfused in the preceding 120 days.
Other experiments were carried out in normal saline (140 mM NaCl, 2 mM KCl, 10 mM tris-HCl, pH 8.0). At the end of the incubation, triplicate samples of each cell suspension were spun at 3,000 g for 10 min. The supernatant was then removed and a smaller volume of medium containing A23187 (60 μM CaCl2, and ^86 Rb was added to achieve a final Hct of 4-5%. Aliquots of cell suspension were taken at specified times (1, 3, and 5 min) and spun through 0.8 ml of medium with 5 mM EGTA and a 0.4 ml cushion of butyl-phthalate. The resultant supernatant and the upper layer of oil were carefully removed, the tube contents frozen at -80° C. and the tube tip containing the cell pellet cut off and counted.

Assay [2] deals with Gardos pathway in normal AA cells. The settings on record: read-out: IC50 obtained with a different method in normal AA cells; cited from earlier work.

“Also recorded” adds a separate entry of the source.

For the compound `Clc1ccc(COC(Cn2ccnc2)c2ccc(Cl)cc2Cl)cc1` (stereo not shown) [Econazole, 1-[2-[(4-chlorophenyl)methoxyl]-2-(2,14-dichlorophenyl)ethyl]-1H-imidacole], the “Sequence / rank of inhibitory potency on the Gardos pathway” value in assay [1] was “clotrimazole>miconazole>econazole>metronidazole”. Further, the IC50 in assay [2] is 1800 nM.
As to `Clc1ccc(COC(Cn2ccnc2)c2ccc(Cl)cc2Cl)c(Cl)c1` (stereo not shown) [Miconazole], the “Sequence / rank of inhibitory potency on the Gardos pathway” value in assay [1] was “second most potent inhibitor; also recorded: clotrimazole>miconazole>econazole>metronidazole”. Besides, the IC50 in assay [2] is 1500 nM.
